For at least one entry, the source does not settle the construct or the ends of the probe.
System: RPA heterotrimer, phosphomimetic RPA2 S/T>D S8D,S11D,S12D,S13D,T21D,S23D,S29D,S33D,RPA2: (Homo sapiens)
Experiment: fluorescence microscopy, co-assembly
Details: equimolar, ssDNA-containing aggregates instead of droplets; protein stored in diluted Sorensen phosphate buffer (43.4 mM Na2HPO4, 6.6 mM KH2PO4) pH 7.6, 150 mM KCl, 25 uM EDTA; recombinant protein; protein details: untagged; single-stranded DNA

Chains of the proteins cited; added tags and fusions are not shown. Chains listed by the source or under a name are the forms on record and can include a tag or linker.
RPA heterotrimer, phosphomimetic RPA2 S/T>D S8D,S11D,S12D,S13D,T21D,S23D,S29D,S33D,RPA2: (Homo sapiens), one chain, as listed by the source S11D S12D S13D T21D S23D S29D S33D, chain 2 of 3: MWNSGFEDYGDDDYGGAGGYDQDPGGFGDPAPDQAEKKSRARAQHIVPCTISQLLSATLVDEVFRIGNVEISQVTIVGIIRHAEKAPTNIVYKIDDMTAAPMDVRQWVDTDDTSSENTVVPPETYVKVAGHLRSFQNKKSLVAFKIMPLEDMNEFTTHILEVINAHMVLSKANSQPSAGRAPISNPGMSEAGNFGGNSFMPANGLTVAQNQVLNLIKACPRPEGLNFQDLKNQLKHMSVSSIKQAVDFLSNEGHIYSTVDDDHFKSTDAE

ATGTGGAACAGTGGATTCGAAAGCTATGGCAGCGACGACT [FAM-40nt ssDNA]
binding result: binds

— article PMC10113159
